Experimental data published in paper PMC7519114.
Results are given in words; binding and its absence hold for the method and conditions named. In cells and extracts the contact can be indirect. Here binding means that the protein was enriched with, or labelled near, the bait; the list need not be complete.

Protein sequences, listed by entry. Tags and fused reporters are not part of them.
UniProt P25106: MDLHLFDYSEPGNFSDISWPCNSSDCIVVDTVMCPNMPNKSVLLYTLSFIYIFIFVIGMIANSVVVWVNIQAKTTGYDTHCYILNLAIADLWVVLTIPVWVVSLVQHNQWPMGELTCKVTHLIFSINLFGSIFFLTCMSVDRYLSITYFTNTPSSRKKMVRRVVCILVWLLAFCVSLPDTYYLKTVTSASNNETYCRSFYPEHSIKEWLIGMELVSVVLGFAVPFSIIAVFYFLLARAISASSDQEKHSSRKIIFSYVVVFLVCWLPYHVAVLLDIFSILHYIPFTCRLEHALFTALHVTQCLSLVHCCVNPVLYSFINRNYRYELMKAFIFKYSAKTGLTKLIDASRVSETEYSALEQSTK
UniProt Q7Z6Z7: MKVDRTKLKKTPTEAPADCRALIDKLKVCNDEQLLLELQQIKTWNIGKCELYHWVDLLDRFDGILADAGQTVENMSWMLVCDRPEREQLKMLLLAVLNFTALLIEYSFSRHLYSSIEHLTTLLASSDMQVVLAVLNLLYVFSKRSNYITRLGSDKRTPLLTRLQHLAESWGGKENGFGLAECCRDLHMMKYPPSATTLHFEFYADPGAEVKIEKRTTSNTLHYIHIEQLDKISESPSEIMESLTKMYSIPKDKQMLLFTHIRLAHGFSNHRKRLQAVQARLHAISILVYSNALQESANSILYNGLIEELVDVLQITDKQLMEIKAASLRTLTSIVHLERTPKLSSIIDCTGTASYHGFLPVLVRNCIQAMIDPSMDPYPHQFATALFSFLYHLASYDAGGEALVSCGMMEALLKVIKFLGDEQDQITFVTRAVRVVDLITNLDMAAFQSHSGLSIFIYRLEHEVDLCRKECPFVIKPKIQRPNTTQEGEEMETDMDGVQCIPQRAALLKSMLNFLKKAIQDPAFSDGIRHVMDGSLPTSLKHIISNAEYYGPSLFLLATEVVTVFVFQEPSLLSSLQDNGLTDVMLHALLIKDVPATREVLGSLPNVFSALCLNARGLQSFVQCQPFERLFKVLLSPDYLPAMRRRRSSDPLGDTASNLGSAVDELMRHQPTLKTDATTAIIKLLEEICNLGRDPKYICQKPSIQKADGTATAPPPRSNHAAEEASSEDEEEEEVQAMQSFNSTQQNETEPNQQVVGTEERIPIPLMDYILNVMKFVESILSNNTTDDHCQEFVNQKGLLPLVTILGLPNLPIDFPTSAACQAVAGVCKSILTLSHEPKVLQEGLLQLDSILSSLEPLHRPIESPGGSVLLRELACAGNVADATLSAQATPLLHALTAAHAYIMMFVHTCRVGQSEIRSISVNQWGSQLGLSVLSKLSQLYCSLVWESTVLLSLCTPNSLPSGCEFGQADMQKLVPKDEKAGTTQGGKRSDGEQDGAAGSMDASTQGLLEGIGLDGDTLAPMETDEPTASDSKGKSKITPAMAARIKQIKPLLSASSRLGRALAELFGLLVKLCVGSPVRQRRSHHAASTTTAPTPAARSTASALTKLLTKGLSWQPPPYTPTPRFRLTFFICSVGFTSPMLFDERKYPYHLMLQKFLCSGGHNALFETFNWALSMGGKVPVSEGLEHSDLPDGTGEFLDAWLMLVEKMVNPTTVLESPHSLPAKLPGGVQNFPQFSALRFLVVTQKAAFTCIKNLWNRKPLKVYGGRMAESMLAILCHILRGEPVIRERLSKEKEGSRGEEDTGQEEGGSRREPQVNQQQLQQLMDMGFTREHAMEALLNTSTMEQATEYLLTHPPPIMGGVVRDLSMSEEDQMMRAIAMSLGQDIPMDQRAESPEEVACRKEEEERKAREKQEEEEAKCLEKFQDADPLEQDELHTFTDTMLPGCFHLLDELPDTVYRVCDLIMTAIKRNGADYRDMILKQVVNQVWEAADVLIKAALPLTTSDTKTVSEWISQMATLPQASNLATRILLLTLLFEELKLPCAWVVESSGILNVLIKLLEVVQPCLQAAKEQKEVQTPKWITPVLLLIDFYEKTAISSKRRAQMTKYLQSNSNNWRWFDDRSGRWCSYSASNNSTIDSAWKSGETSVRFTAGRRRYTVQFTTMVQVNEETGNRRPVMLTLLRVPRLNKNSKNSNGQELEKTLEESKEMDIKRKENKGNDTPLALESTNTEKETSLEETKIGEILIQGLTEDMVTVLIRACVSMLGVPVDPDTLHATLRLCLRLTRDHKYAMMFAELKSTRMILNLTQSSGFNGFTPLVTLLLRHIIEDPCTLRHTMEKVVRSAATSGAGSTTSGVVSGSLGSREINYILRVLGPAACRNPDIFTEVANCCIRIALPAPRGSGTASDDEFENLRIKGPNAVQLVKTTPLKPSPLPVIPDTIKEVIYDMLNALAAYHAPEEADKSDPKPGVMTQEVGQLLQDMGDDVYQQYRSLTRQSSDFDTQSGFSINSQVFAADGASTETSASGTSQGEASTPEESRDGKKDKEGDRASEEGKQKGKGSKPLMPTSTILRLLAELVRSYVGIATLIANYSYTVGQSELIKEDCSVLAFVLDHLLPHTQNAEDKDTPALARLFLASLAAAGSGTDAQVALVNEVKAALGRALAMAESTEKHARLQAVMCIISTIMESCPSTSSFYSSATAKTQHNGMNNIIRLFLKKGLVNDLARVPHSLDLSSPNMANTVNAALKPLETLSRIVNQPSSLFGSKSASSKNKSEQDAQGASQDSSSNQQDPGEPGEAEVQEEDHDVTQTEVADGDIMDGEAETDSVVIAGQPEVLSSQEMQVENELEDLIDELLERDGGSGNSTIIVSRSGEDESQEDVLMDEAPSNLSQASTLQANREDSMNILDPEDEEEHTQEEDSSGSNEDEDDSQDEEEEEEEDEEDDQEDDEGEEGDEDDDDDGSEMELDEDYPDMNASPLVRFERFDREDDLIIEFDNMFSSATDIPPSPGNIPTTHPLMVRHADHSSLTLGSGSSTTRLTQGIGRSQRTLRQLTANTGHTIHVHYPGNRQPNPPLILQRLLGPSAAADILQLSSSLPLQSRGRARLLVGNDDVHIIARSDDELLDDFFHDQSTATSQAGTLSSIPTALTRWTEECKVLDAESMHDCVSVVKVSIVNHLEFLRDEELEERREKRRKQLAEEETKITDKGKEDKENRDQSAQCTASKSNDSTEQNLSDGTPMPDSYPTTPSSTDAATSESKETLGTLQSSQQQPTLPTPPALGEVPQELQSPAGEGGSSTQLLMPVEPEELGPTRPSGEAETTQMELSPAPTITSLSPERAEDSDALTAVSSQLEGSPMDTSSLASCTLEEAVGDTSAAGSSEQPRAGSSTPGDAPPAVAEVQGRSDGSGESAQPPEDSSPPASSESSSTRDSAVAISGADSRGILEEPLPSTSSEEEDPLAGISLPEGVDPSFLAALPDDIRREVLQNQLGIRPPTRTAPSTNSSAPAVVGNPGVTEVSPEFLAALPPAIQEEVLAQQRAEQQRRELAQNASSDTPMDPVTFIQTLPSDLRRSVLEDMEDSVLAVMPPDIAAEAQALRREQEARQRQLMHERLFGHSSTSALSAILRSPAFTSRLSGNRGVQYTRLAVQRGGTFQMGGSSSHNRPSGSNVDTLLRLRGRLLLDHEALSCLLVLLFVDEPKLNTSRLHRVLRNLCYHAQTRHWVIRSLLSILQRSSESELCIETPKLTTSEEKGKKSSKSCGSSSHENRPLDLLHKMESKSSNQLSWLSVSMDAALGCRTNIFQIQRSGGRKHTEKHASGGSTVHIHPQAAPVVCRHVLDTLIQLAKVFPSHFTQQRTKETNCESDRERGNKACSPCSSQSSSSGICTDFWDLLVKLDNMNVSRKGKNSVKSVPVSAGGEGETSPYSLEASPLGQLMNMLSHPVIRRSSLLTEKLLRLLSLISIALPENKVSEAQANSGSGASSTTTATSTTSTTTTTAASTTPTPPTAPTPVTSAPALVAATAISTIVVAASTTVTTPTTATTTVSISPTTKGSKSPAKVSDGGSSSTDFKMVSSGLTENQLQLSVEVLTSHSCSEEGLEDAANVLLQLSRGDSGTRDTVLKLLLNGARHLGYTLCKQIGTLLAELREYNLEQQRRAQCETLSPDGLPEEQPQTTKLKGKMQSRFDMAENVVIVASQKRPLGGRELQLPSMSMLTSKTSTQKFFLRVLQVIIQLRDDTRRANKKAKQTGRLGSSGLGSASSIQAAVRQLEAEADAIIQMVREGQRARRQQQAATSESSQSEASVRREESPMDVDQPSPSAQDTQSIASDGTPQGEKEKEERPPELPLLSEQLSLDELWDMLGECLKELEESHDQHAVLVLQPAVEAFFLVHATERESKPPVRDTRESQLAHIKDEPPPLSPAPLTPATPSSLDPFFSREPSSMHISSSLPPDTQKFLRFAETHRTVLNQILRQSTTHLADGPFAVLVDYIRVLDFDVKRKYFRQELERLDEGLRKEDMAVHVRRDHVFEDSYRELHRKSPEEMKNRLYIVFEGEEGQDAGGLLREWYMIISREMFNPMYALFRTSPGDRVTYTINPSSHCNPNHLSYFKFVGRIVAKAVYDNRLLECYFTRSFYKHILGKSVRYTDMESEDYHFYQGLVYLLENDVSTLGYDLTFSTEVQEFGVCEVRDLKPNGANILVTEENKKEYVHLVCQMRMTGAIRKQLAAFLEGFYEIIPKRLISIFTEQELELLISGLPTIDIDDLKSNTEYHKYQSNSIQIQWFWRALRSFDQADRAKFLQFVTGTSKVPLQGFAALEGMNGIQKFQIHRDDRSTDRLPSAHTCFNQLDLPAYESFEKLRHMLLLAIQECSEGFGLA
UniProt Q9NRR5: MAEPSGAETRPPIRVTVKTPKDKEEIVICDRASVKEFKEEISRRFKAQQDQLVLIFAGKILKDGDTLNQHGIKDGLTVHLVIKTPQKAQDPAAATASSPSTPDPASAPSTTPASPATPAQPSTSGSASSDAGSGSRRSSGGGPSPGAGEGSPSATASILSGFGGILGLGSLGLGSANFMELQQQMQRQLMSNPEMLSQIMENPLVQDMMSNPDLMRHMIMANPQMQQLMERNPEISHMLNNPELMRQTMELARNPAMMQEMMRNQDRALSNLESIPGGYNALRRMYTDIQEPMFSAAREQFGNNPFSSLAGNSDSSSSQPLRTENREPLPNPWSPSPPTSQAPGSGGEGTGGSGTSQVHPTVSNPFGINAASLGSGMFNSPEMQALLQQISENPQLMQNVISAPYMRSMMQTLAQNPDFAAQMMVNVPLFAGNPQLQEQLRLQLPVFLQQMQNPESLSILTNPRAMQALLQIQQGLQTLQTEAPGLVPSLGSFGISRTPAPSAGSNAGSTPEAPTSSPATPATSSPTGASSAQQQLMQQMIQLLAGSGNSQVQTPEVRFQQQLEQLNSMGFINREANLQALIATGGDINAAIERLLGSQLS
UniProt P17302: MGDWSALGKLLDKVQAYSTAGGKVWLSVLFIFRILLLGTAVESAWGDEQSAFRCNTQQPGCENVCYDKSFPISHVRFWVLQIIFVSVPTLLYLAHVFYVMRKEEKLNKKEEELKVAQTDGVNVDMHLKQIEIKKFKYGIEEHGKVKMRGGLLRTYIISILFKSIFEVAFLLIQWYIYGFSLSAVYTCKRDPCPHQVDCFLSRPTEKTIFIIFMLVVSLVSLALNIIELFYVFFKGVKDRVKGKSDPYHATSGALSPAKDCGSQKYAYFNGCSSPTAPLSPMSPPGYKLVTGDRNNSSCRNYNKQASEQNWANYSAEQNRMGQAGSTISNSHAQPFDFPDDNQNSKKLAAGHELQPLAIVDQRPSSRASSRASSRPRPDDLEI
UniProt Q13509: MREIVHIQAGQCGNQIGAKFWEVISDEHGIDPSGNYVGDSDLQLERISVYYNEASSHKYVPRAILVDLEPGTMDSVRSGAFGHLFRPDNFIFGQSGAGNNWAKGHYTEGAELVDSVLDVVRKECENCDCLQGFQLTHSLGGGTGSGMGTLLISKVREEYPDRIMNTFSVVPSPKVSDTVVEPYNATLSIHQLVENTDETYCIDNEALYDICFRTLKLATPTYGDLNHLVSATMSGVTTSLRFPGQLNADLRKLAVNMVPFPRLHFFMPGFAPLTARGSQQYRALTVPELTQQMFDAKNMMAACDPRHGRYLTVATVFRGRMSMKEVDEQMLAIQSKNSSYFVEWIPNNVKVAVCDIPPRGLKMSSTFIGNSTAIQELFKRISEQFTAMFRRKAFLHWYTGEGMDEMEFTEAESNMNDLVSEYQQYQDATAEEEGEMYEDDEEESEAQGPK
UniProt P08754: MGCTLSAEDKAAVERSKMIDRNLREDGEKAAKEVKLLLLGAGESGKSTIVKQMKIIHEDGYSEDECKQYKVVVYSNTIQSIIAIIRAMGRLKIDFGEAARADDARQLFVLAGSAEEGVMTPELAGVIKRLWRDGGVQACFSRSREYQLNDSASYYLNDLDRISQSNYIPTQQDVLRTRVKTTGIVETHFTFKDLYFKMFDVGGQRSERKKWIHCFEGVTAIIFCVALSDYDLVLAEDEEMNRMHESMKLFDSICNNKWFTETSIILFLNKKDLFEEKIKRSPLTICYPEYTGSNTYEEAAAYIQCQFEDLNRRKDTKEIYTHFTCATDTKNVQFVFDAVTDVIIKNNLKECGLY

B1: Solute carrier family 1 member 5 (SLC1A5) (protein, UniProt Q15758 1-541)
chain: MVADPPRDSKGLAAAEPTANGGLALASIEDQGAAAGGYCGSRDQVRRCLRANLLVLLTVVAVVAGVALGLGVSGAGGALALGPERLSAFVFPGELLLRLLRMIILPLVVCSLIGGAASLDPGALGRLGAWALLFFLVTTLLASALGVGLALALQPGAASAAINASVGAAGSAENAPSKEVLDSFLDLARNIFPSNLVSAAFRSYSTTYEERNITGTRVKVPVGQEVEGMNILGLVVFAIVFGVALRKLGPEGELLIRFFNSFNEATMVLVSWIMWYAPVGIMFLVAGKIVEMEDVGLLFARLGKYILCCLLGHAIHGLLVLPLIYFLFTRKNPYRFLWGIVTPLATAFGTSSSSATLPLMMKCVEENNGVAKHISRFILPIGATVNMDGAALFQCVAAVFIAQLSQQSLDFVKIITILVTATASSVGAAGIPAGGVLTLAIILEAVNLPVDHISLILAVDWLVDRSCTVLNVEGDALGAGLLQNYVDRTESRSTEPELIQVKSELPLDPLPVPTEEGNPLLKHYRGPAGDATVASEKESVM
B2: Cytochrome P450 oxidoreductase (POR) (enzyme, UniProt P16435 1-677)
chain: MGDSHVDTSSTVSEAVAEEVSLFSMTDMILFSLIVGLLTYWFLFRKKKEEVPEFTKIQTLTSSVRESSFVEKMKKTGRNIIVFYGSQTGTAEEFANRLSKDAHRYGMRGMSADPEEYDLADLSSLPEIDNALVVFCMATYGEGDPTDNAQDFYDWLQETDVDLSGVKFAVFGLGNKTYEHFNAMGKYVDKRLEQLGAQRIFELGLGDDDGNLEEDFITWREQFWPAVCEHFGVEATGEESSIRQYELVVHTDIDAAKVYMGEMGRLKSYENQKPPFDAKNPFLAAVTTNRKLNQGTERHLMHLELDISDSKIRYESGDHVAVYPANDSALVNQLGKILGADLDVVMSLNNLDEESNKKHPFPCPTSYRTALTYYLDITNPPRTNVLYELAQYASEPSEQELLRKMASSSGEGKELYLSWVVEARRHILAILQDCPSLRPPIDHLCELLPRLQARYYSIASSSKVHPNSVHICAVVVEYETKAGRINKGVATNWLRAKEPAGENGGRALVPMFVRKSQFRLPFKATTPVIMVGPGTGVAPFIGFIQERAWLRQQGKEVGETLLYYGCRRSDEDYLYREELAQFHRDGALTQLNVAFSREQSHKVYVQHLLKQDREHLWKLIEGGAHIYVCGDARNMARDVQNTFYDIVAELGAMEHAQAVDYIKKLMTKGRYSLDVWS
B3: beta-subunit of the electron-transfer protein (ETFB) (protein, UniProt P38117 1-255)
chain: MAELRVLVAVKRVIDYAVKIRVKPDRTGVVTDGVKHSMNPFCEIAVEEAVRLKEKKLVKEVIAVSCGPAQCQETIRTALAMGADRGIHVEVPPAEAERLGPLQVARVLAKLAEKEKVDLVLLGKQAIDDDCNQTGQMTAGFLDWPQGTFASQVTLEGDKLKVEREIDGGLETLRLKLPAVVTADLRLNEPRYATLPNIMKAKKKKIEVIKPGDLGVDLTSKLSVISVEDPPQRTAGVKVETTEDLVAKLKEIGRI

What follows are molecules tested against HA-tagged atypical chemokine receptor 3 (HA-ACKR3) (not stated (human or mouse cDNA cloned)) (UniProt P25106) (assay: affinity purification with mass spectrometry; HA-ACKR3 expressed in HEK293T cells; lysis in 1% DDM, 20 mM Tris-HCl pH 7.5, 100 mM NaCl, 2.5 mM CaCl2; 5 mg protein on agarose-conjugated anti-HA antibody overnight at 4 °C; washes with 0.5 M and 150 mM NaCl; nanoLC-MS/MS with label-free quantification against cells transfected with an empty plasmid).

binding, binds:
B1
B2
B3

Target: HA-tagged atypical chemokine receptor 3 (HA-ACKR3) (not stated (human or mouse cDNA cloned)) (UniProt P25106)
Test: as above
Remark: another data set of the same source

binding, binds:
E3 ubiquitin-protein ligase HUWE1 (from UniProt Q7Z6Z7 1-4374) (enzyme)
Dynactin 1 (DCTN1) (from UniProt Q14203 1-1278)
Ubiquilin-4 (UBQLN4) (from UniProt Q9NRR5 1-601)
E3 ubiquitin-protein ligase AMFR (from UniProt Q9UKV5 1-643) (enzyme)
Gap Junction Alpha-1 protein (GJA1, Connexin 43, Cx43) (from UniProt P17302 1-382)
tubulin beta-3 chain (TUBB3) (from UniProt Q13509 1-450)
Clathrin (CLTC) (from UniProt Q00610 1-1675)
E3 ubiquitin-protein ligase HECTD1 (from UniProt Q9ULT8 1-2610) (enzyme)
Gαi3 (GNAI3) (from UniProt P08754 1-354)
